{"sequences": {"note": "Sequences of proteins named here, by UniProt entry; tags and fusion partners are left off.", "UniProt P51587": "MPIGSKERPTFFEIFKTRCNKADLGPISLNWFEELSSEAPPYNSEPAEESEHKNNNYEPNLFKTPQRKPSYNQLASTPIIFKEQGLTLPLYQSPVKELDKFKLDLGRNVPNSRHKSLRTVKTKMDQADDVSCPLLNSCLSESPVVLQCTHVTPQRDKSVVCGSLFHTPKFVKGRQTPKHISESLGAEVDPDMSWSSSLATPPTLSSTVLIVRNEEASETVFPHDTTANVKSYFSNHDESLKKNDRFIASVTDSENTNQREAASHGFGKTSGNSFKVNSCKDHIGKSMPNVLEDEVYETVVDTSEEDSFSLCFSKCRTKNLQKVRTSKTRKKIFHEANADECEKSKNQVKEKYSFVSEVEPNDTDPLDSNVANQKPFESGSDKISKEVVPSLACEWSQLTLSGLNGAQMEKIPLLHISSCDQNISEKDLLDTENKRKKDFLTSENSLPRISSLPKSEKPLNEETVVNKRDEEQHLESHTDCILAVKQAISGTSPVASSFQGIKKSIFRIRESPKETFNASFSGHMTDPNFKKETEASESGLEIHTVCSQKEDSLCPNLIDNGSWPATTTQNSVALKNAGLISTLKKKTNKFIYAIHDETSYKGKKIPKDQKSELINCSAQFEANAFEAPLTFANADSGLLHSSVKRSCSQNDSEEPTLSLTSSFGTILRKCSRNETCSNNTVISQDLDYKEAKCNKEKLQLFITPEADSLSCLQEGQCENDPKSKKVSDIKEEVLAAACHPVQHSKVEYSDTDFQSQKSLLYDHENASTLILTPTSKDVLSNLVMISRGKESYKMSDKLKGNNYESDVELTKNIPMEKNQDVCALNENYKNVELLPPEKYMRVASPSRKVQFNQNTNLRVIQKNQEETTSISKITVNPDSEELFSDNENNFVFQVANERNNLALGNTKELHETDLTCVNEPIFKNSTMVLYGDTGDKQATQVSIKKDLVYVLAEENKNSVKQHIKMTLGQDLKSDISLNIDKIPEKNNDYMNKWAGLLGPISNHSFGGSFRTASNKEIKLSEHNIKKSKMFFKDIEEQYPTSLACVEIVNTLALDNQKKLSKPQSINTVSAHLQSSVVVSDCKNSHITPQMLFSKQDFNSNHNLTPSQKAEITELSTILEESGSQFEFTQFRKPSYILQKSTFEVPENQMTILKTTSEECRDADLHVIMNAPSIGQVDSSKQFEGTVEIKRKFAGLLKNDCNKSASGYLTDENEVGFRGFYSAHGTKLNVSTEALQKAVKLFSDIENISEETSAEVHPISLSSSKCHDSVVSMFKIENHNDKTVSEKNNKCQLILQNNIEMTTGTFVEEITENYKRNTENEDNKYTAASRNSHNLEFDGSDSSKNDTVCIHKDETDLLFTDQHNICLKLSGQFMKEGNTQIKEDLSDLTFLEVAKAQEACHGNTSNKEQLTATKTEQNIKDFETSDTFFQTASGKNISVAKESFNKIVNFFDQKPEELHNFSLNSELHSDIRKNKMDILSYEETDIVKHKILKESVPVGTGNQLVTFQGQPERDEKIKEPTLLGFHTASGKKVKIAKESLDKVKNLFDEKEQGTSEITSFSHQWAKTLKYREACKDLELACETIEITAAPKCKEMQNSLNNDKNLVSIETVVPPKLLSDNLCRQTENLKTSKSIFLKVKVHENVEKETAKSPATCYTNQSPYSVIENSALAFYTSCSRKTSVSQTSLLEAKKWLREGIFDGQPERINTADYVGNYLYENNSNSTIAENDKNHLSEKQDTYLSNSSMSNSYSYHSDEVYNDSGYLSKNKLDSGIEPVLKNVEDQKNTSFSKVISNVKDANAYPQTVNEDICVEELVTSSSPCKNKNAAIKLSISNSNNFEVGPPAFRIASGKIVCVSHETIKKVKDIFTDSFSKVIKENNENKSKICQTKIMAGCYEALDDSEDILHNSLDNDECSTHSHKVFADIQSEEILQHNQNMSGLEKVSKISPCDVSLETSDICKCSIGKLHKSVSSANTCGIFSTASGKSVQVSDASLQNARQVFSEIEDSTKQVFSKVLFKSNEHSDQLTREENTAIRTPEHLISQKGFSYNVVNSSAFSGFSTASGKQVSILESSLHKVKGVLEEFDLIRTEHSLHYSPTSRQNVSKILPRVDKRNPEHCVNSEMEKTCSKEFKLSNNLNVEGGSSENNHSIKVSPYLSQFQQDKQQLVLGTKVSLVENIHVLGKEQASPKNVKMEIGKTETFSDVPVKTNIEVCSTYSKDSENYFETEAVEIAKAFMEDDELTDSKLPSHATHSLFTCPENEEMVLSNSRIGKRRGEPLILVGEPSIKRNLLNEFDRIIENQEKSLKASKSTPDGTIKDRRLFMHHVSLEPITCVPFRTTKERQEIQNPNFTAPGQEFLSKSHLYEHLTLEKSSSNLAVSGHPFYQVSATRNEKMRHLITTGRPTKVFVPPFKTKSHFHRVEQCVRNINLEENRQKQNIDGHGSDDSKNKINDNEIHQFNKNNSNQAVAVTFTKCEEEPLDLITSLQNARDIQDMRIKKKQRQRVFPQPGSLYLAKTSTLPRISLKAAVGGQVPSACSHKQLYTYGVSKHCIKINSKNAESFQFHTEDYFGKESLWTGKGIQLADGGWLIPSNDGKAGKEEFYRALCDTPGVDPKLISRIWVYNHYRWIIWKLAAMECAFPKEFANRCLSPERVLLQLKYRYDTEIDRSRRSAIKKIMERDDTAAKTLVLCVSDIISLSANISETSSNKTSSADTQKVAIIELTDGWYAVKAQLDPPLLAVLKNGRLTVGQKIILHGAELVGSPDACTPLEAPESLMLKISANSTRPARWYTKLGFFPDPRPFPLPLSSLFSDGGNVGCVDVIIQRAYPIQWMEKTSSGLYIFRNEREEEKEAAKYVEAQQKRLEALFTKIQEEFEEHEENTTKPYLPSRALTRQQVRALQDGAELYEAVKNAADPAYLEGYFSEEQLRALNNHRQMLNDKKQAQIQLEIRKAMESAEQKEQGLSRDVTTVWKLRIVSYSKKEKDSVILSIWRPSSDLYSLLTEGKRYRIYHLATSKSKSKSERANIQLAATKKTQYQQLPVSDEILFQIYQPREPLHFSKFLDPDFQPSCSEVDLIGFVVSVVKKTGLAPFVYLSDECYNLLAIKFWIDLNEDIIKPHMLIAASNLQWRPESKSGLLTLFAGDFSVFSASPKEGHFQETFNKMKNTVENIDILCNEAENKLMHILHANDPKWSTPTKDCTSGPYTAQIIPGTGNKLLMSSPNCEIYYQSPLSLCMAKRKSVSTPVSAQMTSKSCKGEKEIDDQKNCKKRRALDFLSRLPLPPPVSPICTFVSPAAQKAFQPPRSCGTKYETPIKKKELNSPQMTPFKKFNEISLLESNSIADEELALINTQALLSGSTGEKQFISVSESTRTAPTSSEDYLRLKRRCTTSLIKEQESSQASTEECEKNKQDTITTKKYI", "UniProt Q9BXW9": "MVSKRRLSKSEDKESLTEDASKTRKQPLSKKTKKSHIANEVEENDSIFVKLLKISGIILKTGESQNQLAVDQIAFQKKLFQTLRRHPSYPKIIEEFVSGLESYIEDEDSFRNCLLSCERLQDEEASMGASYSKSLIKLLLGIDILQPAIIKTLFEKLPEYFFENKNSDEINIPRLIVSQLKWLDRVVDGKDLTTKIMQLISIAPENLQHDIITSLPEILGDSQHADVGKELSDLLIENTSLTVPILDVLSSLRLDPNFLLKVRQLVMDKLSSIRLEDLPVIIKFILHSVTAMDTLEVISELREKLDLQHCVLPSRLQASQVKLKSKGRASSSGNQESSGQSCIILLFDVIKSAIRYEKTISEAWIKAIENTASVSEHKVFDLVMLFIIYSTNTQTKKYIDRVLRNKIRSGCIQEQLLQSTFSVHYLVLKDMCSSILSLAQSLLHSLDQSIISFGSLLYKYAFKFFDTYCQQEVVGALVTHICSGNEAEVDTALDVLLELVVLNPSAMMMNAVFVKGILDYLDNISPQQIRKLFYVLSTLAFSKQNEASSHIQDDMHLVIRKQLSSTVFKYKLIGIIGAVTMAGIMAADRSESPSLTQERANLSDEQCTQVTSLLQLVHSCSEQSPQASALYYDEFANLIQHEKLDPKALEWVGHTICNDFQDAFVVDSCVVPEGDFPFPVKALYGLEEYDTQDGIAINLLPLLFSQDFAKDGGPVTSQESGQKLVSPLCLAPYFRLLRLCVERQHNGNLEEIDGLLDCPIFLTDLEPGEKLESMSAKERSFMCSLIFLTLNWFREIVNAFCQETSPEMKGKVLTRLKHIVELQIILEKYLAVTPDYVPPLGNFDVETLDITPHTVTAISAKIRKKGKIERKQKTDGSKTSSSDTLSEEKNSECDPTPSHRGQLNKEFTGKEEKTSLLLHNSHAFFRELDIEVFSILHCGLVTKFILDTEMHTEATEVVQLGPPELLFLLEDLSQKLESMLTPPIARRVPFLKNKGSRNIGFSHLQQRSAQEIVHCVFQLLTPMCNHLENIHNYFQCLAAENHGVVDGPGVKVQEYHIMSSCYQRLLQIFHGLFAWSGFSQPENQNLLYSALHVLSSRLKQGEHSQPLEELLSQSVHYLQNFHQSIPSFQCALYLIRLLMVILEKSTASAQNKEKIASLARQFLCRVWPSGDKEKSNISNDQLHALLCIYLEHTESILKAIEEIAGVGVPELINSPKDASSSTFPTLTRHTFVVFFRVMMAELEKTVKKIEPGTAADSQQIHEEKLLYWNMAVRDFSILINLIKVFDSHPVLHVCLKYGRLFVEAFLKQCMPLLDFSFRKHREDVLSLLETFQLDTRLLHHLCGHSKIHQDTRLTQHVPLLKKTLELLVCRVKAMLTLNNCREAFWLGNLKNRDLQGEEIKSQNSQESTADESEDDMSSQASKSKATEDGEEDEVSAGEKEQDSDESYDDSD"}, "source": "paper PMC4591814", "note": "These are yes or no findings as the source states them, for the method shown. Binding seen in cells or lysates may run through a third protein. These calls come from enrichment with a bait or labelling near it, and not all partners need be listed. A no says only that the protein was not detected with the bait. Tags and fused reporters may be left off the sequences shown."}
{"biological_target": "T1, FLAG and HA epitope-tagged human DNA polymerase ν (POLN) (human) (UniProt Q7Z5Q5)", "T1 sequence": "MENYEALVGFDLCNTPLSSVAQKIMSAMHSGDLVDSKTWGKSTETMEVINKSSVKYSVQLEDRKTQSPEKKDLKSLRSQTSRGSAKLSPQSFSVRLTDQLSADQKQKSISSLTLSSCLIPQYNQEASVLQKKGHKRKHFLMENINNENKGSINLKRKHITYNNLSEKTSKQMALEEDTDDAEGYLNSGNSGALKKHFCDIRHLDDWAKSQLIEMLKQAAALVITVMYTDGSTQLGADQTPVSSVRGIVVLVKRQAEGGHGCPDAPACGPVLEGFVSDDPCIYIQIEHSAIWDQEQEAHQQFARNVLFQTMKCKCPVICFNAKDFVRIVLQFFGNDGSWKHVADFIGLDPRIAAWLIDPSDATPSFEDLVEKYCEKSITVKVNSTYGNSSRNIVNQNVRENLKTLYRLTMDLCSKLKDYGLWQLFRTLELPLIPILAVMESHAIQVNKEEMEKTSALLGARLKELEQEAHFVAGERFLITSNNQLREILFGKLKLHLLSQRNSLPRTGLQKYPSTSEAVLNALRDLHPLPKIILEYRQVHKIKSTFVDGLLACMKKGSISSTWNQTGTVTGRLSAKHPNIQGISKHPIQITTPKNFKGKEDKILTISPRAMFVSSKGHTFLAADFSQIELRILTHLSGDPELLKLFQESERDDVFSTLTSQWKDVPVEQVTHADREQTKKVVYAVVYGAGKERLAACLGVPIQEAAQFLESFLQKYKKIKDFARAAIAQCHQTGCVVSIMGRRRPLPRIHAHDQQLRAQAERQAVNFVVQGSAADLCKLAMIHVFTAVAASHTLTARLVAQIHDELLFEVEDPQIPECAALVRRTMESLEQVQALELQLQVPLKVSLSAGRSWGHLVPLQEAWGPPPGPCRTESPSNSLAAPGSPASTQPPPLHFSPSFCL", "assay": "affinity purification with mass spectrometry; FLAG-HA-POLN recovered from HeLa S3 nuclear extract by sequential anti-FLAG (M2 agarose, FLAG peptide elution) and anti-HA immunoprecipitation, washes in 100 mM KCl buffer 0.1B; gel sections analysed by LC-MS/MS; empty-vector purification as control"}
{"molecule": "BRCA2 (endogenous) (from UniProt P51587 1-3418)", "binding": "binds"}
{"molecule": "FANCD2 (endogenous) (from UniProt Q9BXW9 1-1451)", "binding": "no binding"}
{"molecule": "HELQ (endogenous) (protein, UniProt Q8TDG4 1-1101) MDECGSRIRRRVSLPKRNRPSLGCIFGAPTAAELVPGDEGKEEEEMVAENRRRKTAGVLPVEVQPLLLSDSPECLVLGGGDTNPDLLRHMPTDRGVGDQPNDSEVDMFGDYDSFTENSFIAQVDDLEQKYMQLPEHKKHATDFATENLCSESIKNKLSITTIGNLTELQTDKHTENQSGYEGVTIEPGADLLYDVPSSQAIYFENLQNSSNDLGDHSMKERDWKSSSHNTVNEELPHNCIEQPQQNDESSSKVRTSSDMNRRKSIKDHLKNAMTGNAKAQTPIFSRSKQLKDTLLSEEINVAKKTVESSSNDLGPFYSLPSKVRDLYAQFKGIEKLYEWQHTCLTLNSVQERKNLIYSLPTSGGKTLVAEILMLQELLCCRKDVLMILPYVAIVQEKISGLSSFGIELGFFVEEYAGSKGRFPPTKRREKKSLYIATIEKGHSLVNSLIETGRIDSLGLVVVDELHMIGEGSRGATLEMTLAKILYTSKTTQIIGMSATLNNVEDLQKFLQAEYYTSQFRPVELKEYLKINDTIYEVDSKAENGMTFSRLLNYKYSDTLKKMDPDHLVALVTEVIPNYSCLVFCPSKKNCENVAEMICKFLSKEYLKHKEKEKCEVIKNLKNIGNGNLCPVLKRTIPFGVAYHHSGLTSDERKLLEEAYSTGVLCLFTCTSTLAAGVNLPARRVILRAPYVAKEFLKRNQYKQMIGRAGRAGIDTIGESILILQEKDKQQVLELITKPLENCYSHLVQEFTKGIQTLFLSLIGLKIATNLDDIYHFMNGTFFGVQQKVLLKEKSLWEITVESLRYLTEKGLLQKDTIYKSEEEVQYNFHITKLGRASFKGTIDLAYCDILYRDLKKGLEGLVLESLLHLIYLTTPYDLVSQCNPDWMIYFRQFSQLSPAEQNVAAILGVSESFIGKKASGQAIGKKVDKNVVNRLYLSFVLYTLLKETNIWTVSEKFNMPRGYIQNLLTGTASFSSCVLHFCEELEEFWVYRALLVELTKKLTYCVKAELIPLMEVTGVLEGRAKQLYSAGYKSLMHLANANPEVLVRTIDHLSRRQAKQIVSSAKMLLHEKAEALQEEVEELLRLPSDFPGAVASSTDKA", "binding": "no binding"}
